Data taken from PubChem BioAssay AID493014 (National Center for Advancing Translational Sciences (NCATS), 2011).
Several values for one entry are separate records, joined by “and”; a condition that tells them apart may be missing. Equal entries are not always repeated. Some of the results follow. These are further read-outs of the screen, such as a control signal, another cell line or another target. No call is given for them. Most of these compounds were active or inconclusive in the main read-out, so they are no random draw. The note in brackets gives the kind of curve behind each potency; many fits are weak.

Assay: qHTS Assay to Find Inhibitors of Chronic Active B-Cell Receptor Signaling
Details: ABC-DLBCL IkBa-CBG/CBR reporter, luminescence ratio (green luciferase fused to IkBa over red control in TMD8 lymphoma cells), 4 h
In short: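 Doxycycline induced both beetle luciferases in TMD8 lymphoma cells; IKK-driven degradation limits the IkappaBalpha-fused green signal, while red luminescence normalises for cell number and nonspecific effects. Compounds tested up to 46 uM, 4 hrs.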

[1] = measured here: CBR red luminescence, cell number
[2] = measured here: IkBa-CBG green luminescence

Compound | AC50 [1] | AC50 [2]
C=CCn1c(=O)c2c(C)c(C)sc2n2c(Nc3ccccc3)nnc12 | 2.82 µM [falling, full curve] | –
O=C(NC1CCCCC1)c1cc(-c2cccc(Cl)c2)on1 | 5.01 µM [falling, partial curve, poor fit] | –
O=C(O)COc1ccccc1-c1nc(-c2ccccc2)c(-c2ccccc2)[nH]1 | 11.2 µM [falling, single point] | –
COc1ccc2c(c1)c(CC(=O)O)c(C)n2C(=O)c1ccc(Cl)cc1 | 7.08 µM [falling, partial curve] | –
COc1ccc(C(=O)/C(C#N)=N/Nc2ccccc2[N+](=O)[O-])cc1 | 11.6 µM [rising, partial curve] | –
COCC1CCCN(C(=O)c2ccc3oc(CCCc4ccccc4)nc3c2)C1 (configuration not stated) | 20 µM [falling, single point] | –
CCCc1nc([N+](=O)[O-])c(S(=O)(=O)c2ccccc2)n1CC(C)C | 10.3 µM [falling, partial curve] | 8.2 µM [falling, partial curve]
CCn1c(SCC(=O)Nc2nc3ccc(C)cc3s2)nc2c(c1=O)SC(C)C2 (configuration not stated) | 1.26 µM [falling, full curve, poor fit] | –
CC(=O)c1ccc(NC(=O)CSCCO)cc1 | 3.26 µM [rising, partial curve, poor fit] | –
CC1CCCC(NC(=O)COC(=O)Cc2ccc(Cl)cc2)C1C (configuration not stated) | 0.82 µM [rising, full curve, poor fit] | –
COc1ccc(C(=O)NNC(=O)c2ccccc2[N+](=O)[O-])cc1Br | 14.6 µM [falling, partial curve, poor fit] | –
COc1ccc(N(C)S(=O)(=O)c2cccc(C(=O)NCC3CCCO3)c2)cc1 (configuration not stated) | 2.59 µM [falling, full curve, poor fit] | –
CSc1ccccc1NC(=O)C1=CC(c2ccc(C)cc2)=NS(=O)(=O)N1C | 3.16 µM [falling, partial curve, poor fit] | –
Oc1ccccc1C(=S)N1CCCCCC1 | 0.731 µM [falling, partial curve, poor fit] | –
COc1cccc(C(=O)/C=C/Nc2cc(C)ccc2O)c1 | 29.1 µM [falling, single point] | –
Cn1cc(C(=O)N/N=C/C(Br)=C\c2ccccc2)ccc1=O | 3.16 µM [rising, single point] | –
Cc1ccc2c(C(=O)CN3CCC4(CC3)OCCO4)c(C)[nH]c2c1 | 35.5 µM [falling, single point] | 35.5 µM [rising, partial curve, poor fit]
COc1ccc(-c2cn3c4c(sc3n2)CCCC4)cc1 | 0.231 µM [rising, full curve, poor fit] | –
CCOC(=O)C(CC)n1nc(C)n2c(cc3occc32)c1=O (configuration not stated) | 32.6 µM [falling, single point] | –
O=c1[nH]c(CSc2ccccc2)nc2c1oc1ccccc12 | 3.98 µM [falling, partial curve] | –
Nc1nc2ccc(OC(F)(F)F)cc2s1 | 35.5 µM [rising, single point] and 20.6 µM [rising, partial curve] | –
N#Cc1cccc(NC(=O)CSc2ccc3c4c(cccc24)C(=O)c2ccccc2-3)c1 | 2.06 µM [falling, full curve, poor fit] | –

Compound | AC50 [1] | AC50 [2]
Cc1cc(OCC(=O)c2ccc(F)cc2)ccc1N1C(=O)CCC1=O | 3.26 µM [rising, partial curve, poor fit] | –
Cc1cccc(CCNC(=O)c2cc(S(=O)(=O)N3CCCC3)cn2C)c1 | – | 35.5 µM [rising, partial curve, poor fit]
O=C(N/N=C/c1ccc[nH]1)c1cccc([N+](=O)[O-])c1 | 16.4 µM [falling, single point] | –
Cc1ccc(-c2c3c(=O)n(C)c(=O)n(C)c3cn2-c2ccccc2O)cc1 | 15.8 µM [falling, partial curve, poor fit] | –
COc1ccc2cnnc(SCC(=O)Nc3ccc(C(=O)O)cc3)c2c1OC | 29.1 µM [falling, single point] | –
Cc1nc(-c2ccccc2)sc1-c1ccnn1C | 0.447 µM [rising, full curve] | –
CCn1c(SCC(=O)NCCc2ccc(Cl)cc2)nnc1-c1cccs1 | 29.1 µM [falling, single point] | –
COC(=O)[C@H](Cc1ccccc1)NC(=O)c1ccc2ccccc2n1 | 5.62 µM [rising, full curve, poor fit] | –
O=[N+]([O-])c1ccc(N/N=C/c2ccccc2O)cc1 | 35.5 µM [falling, single point] | –
Cc1cc(=O)oc2c1ccc1oc(/C(=N/O)c3ccccc3)c(C)c12 | 6.51 µM [falling, partial curve] | –
COc1cc(C(=O)NCC(=O)N2CCN(S(=O)(=O)c3ccccc3C(F)(F)F)CC2)cc(OC)c1OC | 0.651 µM [rising, partial curve, poor fit] | –
O=C(NNC1=C(C(=O)C(F)(F)F)CCC1)c1ccccc1O | 7.31 µM [falling, partial curve] | –
COc1ccc(CNC(=O)C(c2ccc(C)o2)N(C(=O)c2snc(C(N)=O)c2N)c2ccccc2OC)cc1 (configuration not stated) | 3.16 µM [rising, single point] | –
Cc1ccccc1C(=O)N1CC(=O)Nc2ccc(F)cc2C1c1ccc(F)cc1 (configuration not stated) | 7.94 µM [falling, partial curve] | –
COc1ccc(C(CNC(=O)Nc2ccc(Cl)cc2)N2CCN(C)CC2)cc1 (configuration not stated) | 6.31 µM [rising, single point] | –
CCn1c(SCC(=O)O)nnc1-c1ccccc1OC | 8.91 µM [falling, partial curve, poor fit] | –
CCc1ccc(OCC(=O)Nc2ccncc2)c(Br)c1 | 2.24 µM [rising, partial curve, poor fit] | –
Oc1ccccc1-c1cc(-c2cccc(F)c2)n[nH]1 | 8.91 µM [falling, partial curve] | –
O=C(Nc1nc2ccccc2n1CCN1CCCC1)c1ccc(Cl)cc1 | 35.5 µM [falling, single point] | –
O=C(NNC(=S)NC(=O)c1cccnc1)c1ccc(Cl)cc1 | 12.6 µM [falling, single point] | –
Cc1cccc2cc(CN(C(=O)c3cccs3)c3ccccc3)c(=O)[nH]c12 | 0.13 µM [rising, full curve, poor fit] | –
CC(=O)Nc1ccccc1-c1nn[nH]n1 | 29.1 µM [falling, single point] | –

Two entries from above, reformatted.
Compound	AC50 [1]	AC50 [2]
COCC1CCCN(C(=O)c2ccc3oc(CCCc4ccccc4)nc3c2)C1 (configuration not stated)	20 µM [falling, single point]	–
CCCc1nc([N+](=O)[O-])c(S(=O)(=O)c2ccccc2)n1CC(C)C	10.3 µM [falling, partial curve]	8.2 µM [falling, partial curve]

Remaining list, next part.

Compound | AC50 [1] | AC50 [2]
Cc1ccc(-n2c(C)cc(/C=N/Nc3ccc([N+](=O)[O-])cn3)c2C)c(C)c1 | 11.2 µM [rising, partial curve] | –
CC(C)NC(=O)c1nc2ccccc2s1 | 25.9 µM [falling, single point] | –
Cc1cccc(NC(=O)c2nc(S(C)(=O)=O)ncc2Cl)c1 | 4.47 µM [falling, full curve] | 2.82 µM [rising, full curve, poor fit]
CCOC(=O)C1(Cc2cccc(F)c2)CCN(Cc2cnc(C)s2)CC1 | 11.2 µM [falling, partial curve, poor fit] | –
Cc1cccc(NC(=O)CSc2nc(-c3ccco3)nc3cc(=O)[nH]n23)c1 | 29.1 µM [falling, partial curve, poor fit] | –
Cc1ccc2oc(-c3cccc(NC(=O)c4ccc(Br)o4)c3C)nc2c1 | 5.8 µM [falling, full curve] | –
O=C(Nc1ccc(F)cc1)c1c(Cl)nc2ccccn12 | 3.98 µM [rising, single point] | –
NS(=O)(=O)c1ccc(CCNCc2cc(Cl)ccc2OCc2ccccc2)cc1 | 12.6 µM [falling, single point] | –
O=C(N/C(=C\c1cn(-c2ccccc2)nc1-c1ccc(Cl)cc1)C(=O)N1CCOCC1)c1ccccc1 | 29.1 µM [rising, single point] | –
Cc1ccc(C)c(C2NC(=O)c3ccccc3N2)c1 (configuration not stated) | 0.316 µM [falling, full curve, poor fit] | –
COc1ccc(NC(=O)CC2CCCC2)cc1S(=O)(=O)N1CCCCC1 | 6.51 µM [rising, single point] | –
O=C(c1ccccc1Sc1cccc2ccccc12)N1CCOCC1 | 2.06 µM [rising, full curve, poor fit] | –
NNC(=O)CN1C(c2ccccc2)=Nc2ccc(Br)cc2C1c1ccccc1 (configuration not stated) | 12.6 µM [falling, single point] | –
Cc1c(OCc2ccc([N+](=O)[O-])cc2)ccc2c3c(c(=O)oc12)CCC3 | 29.1 µM [rising, single point] | –
COc1cccc(CN(C)C(=O)c2ccccc2Sc2ccccc2C#N)c1OC | 4.47 µM [falling, full curve] | –
CCCOc1ccc(N/C=C/C(=O)C(C)(C)C)cc1 | 12.6 µM [rising, single point] | –
COc1ccc(C(=O)n2nc(-c3ccccc3)nc2N)cc1OC | 0.794 µM [falling, full curve, poor fit] | –
CC(=O)N1CCC(=NNS(=O)(=O)c2cccc([N+](=O)[O-])c2)CC1 | 23.1 µM [falling, single point] | –
Clc1ccc(-c2n[nH]c3c2Cc2ccccc2-3)cc1Cl | 1.58 µM [rising, full curve, poor fit] | –
O=C(CSCc1cccs1)N1CCCC1 | 18.4 µM [rising, partial curve, poor fit] | –
